Experimental data: publication PMC12412668
These are yes or no findings as the source states them, for the method shown. Binding seen in cells or lysates may run through a third protein. Sequences can lack the tags named with a protein.

Molecular target: T1, CD96v1-BioID2-HA (human) (UniProt P40200)
T1 sequence: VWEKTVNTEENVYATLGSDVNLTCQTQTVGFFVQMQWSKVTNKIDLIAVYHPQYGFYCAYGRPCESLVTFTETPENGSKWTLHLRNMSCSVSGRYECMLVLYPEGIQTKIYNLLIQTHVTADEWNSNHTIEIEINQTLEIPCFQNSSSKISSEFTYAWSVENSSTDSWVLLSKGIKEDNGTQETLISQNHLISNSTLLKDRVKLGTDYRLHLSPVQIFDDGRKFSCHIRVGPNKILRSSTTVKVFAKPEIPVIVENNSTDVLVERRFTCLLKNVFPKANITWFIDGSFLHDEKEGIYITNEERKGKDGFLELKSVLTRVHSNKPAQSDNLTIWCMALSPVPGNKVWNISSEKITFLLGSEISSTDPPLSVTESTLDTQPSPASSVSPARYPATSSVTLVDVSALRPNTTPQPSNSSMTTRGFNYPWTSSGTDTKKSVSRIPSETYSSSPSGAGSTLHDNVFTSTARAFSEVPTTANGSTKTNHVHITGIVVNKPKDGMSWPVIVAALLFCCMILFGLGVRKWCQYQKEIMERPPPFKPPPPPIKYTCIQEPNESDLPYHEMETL
Assay: co-IP; 293T cells co-transfected with CD96v1-BioID2-HA and AU1-tagged Nef or Vpu; lysed in 50 mM tris, 0.5% Brij 98, 150 mM NaCl; CD96 precipitated with anti-HA antibody and protein G Sepharose at 4°C; blots with anti-HA and anti-AU1

Substance: AU1-tagged HIV-1 Nef
- binding: no binding
